Values joined by “and” are separate entries in the source; they are usually repeats but may differ in a detail not shown here. Equal values may be shown once. Where a name gives a salt, the structure may show the parent alone. ± gives the standard deviation of the averaged measurements. Some of the results follow. Single values of this set are uncertain.
test system: Salmonella enterica serovar Typhimurium ST313 D23580; assay: normalized bacterial growth (OD600 20 h minus 0 h, interquartile-mean normalized) (fraction of plate interquartile mean); higher = more bacterial growth (less inhibition); conditions: LPM (pH 5.8, low phosphate, low Mg2+), concentration: 10 µM, temperature: 37 °C

Compound | normalized bacterial growth
C[C@@H]1CC[C@@]2(OC1)O[C@H]1C[C@H]3[C@@H]4CC[C@H]5C[C@@H](O)CC[C@]5(C)[C@H]4CC[C@]3(C)[C@H]1[C@@H]2C | 1.03
Nc1ccc(S(=O)(=O)Nc2ncccn2)cc1 | 1.19
CCC(=O)O[C@H](CC(=O)O)C[N+](C)(C)C | 1.19
Clc1ccccc1CN1CCc2sccc2C1 | 1.04
CCN(CC)CCOC(=O)C1(c2ccc([N+](=O)[O-])cc2)CCCC1 [Nitrocaramiphen hydrochloride] | 1.1
Cc1cc(OC(=O)c2c(C)cc(O)cc2O)cc(O)c1C(=O)O | 1.24
Nc1ccc(O)c(C(=O)O)c1 | 1.3
Cc1cc(C(C)(C)CC(C)(C)C)ccc1OCCOCC[N+](C)(C)Cc1ccccc1 | 0.0657
Cc1cc(NC(=O)C2=C(O)c3ccccc3S(=O)(=O)N2C)no1 | 0.877
CN(C)CCCN1c2ccccc2CCc2ccc(Cl)cc21 [Clomipramine hydrochloride] | 1.02
CO[C@@]1(NC(=O)C2SC(=C(C(N)=O)C(=O)O)S2)C(=O)N2C(C(=O)O)=C(CSc3nnnn3C)CS[C@@H]21 (stereo not given in full) [Cefotetan] | 0.0401
COC(=O)C1=C(C)NC(C)=C(C(=O)OC)C1c1ccccc1[N+](=O)[O-] [Nifedipine] | 0.805
CNC(=O)[C@H]1O[C@@H](n2cnc3c(NCc4ccc(N)cc4)ncnc32)[C@H](O)[C@@H]1O | 0.715
COc1cc2c(cc1O)CC[C@@H]1[C@@H]2CC[C@]2(C)[C@@H](O)CC[C@@H]12 [2-methoxyestradiol] | 0.841
C#C[C@]1(O)CC[C@H]2[C@@H]3CCc4cc(OC)ccc4[C@H]3CC[C@@]21C | 1.18
C#C[C@]1(O)CC[C@H]2[C@@H]3CCc4cc(OC)ccc4[C@H]3CC[C@@]21C [Ethynylestradiol 3-methyl ether] | 0.746
CC(C)NCC(O)c1ccc(NS(C)(=O)=O)cc1 (stereo not given) [()-Sotalol hydrochloride] | 0.865
CC1=C(C)C(=O)C(CCCCC#CCCCC#CCO)=C(C)C1=O | 0.642
CN(C)CCCCSC(=N)N | 1.19
CC(=O)N1CCN(c2ccc(OCC3COC(Cn4ccnc4)(c4ccc(Cl)cc4Cl)O3)cc2)CC1 (stereo not given) | 0.748
CC(=O)N1CCN(c2ccc(OCC3COC(Cn4ccnc4)(c4ccc(Cl)cc4Cl)O3)cc2)CC1 (stereo not given) [Ketoconazole] | 0.819
CCN(CC)CCCC(C)Nc1c2ccc(Cl)cc2nc2ccc(OC)cc12 (stereo not given) [Quinacrine dihydrochloride dihydrate] | 1.04
CCN(CC)CCCC(C)Nc1c2ccc(Cl)cc2nc2ccc(OC)cc12 (stereo not given) [Quinacrine dihydrochloride] | 0.559
COc1ccc(/C=C/c2cc(OC)cc(=O)o2)cc1 | 0.985
Cc1nc(C)c(Cl)c(O)c1Cl | 1.12
CC1(C)C2CC(=O)O[C@@]3(C)C4=CC(=O)O[C@@H](c5ccoc5)[C@]4(C)CCC3[C@@]2(C)C=C[C@H]1O (stereo not given in full) | 0.888
CCCCCCCCCCCCCCCC[N+](C)(C)CCN(Cc1ccc(OC)cc1)c1ncccn1 [Thonzonium bromide] | 0.134

Compound | normalized bacterial growth
O=C(O)P(=O)(O)O | 1.21
CC(=O)O[C@@H]1C[C@@]2(C)C(CC[C@@H]2C(C)=O)C2CCC3=CC(=O)CC[C@]3(C)C21 (stereo not given in full) | 1.05
CNc1cc(NS(=O)(=O)c2ccc(N)cc2)nc(NC)n1 [Ro 04-6790 dihydrochloride] | 1.05
CO[C@H]1C[C@@H]2CC[C@@H](C)[C@@](O)(O2)C(=O)C(=O)N2CCCC[C@H]2C(=O)O[C@H]([C@H](C)C[C@@H]2CC[C@@H](O)[C@H](OC)C2)CC(=O)[C@H](C)/C=C(\C)[C@@H](O)[C@@H](OC)C(=O)[C@H](C)C[C@H](C)/C=C/C=C/C=C/1C | 1.08 and 1.35
COC(=O)C[C@H]1C(C)(C)[C@@H](OC(C)=O)[C@@H]2CC3=C4CC(=O)O[C@@H](c5ccoc5)[C@]4(C)CC[C@@H]3[C@@]1(C)C2=O | 1.05
[Cl-].[Li+] [Lithium Chloride] | 1.01
CCN(CC)CCNC(=O)c1ccc(NC(C)=O)cc1 [N-Acetylprocainamide hydrochloride] | 0.995
CCCCCCN(CCCCCC)C(=O)Cc1c(-c2ccc(F)cc2)[nH]c2ccccc12 ["N,N-Dihexyl-2-(4-fluorophenyl)indole-3-acetamide"] | 0.996
CC(=O)NNC(=O)N1Cc2ccccc2Oc2ccc(Cl)cc21 | 0.973
CNC[C@H](O)c1cccc(O)c1 [Phenylephrine hydrochloride] | 1.13
CC(C)(CO)[C@@H](O)C(=O)NCCCO | 1.14
CC(C(=O)O)[C@H]1CCC2C3CC=C4C[C@@H](O)CC[C@]4(C)C3CC[C@@]21C (stereo partly drawn) ["3beta-HYDROXY-23,24-BISNORCHOL-5-ENIC ACID"] | 1.14
COc1cc2c(cc1OC)-c1cc3ccc(OC)c(OC)c3c[n+]1CC2 | 0.956 and 0.942
COC(=O)[C@H]1[C@H]2C[C@@H]3c4[nH]c5cc(OC)ccc5c4CCN3C[C@H]2C[C@@H](OC(=O)c2cc(OC)c(OC)c(OC)c2)[C@@H]1OC | 0.728
CC(=O)C12OC(C)(c3ccccc3)OC1CC1C3CCC4=CC(=O)CCC4(C)C3CCC12C (stereo not given) | 0.788
CC(C)C[C@H](NC(=O)[C@@H](O)[C@H](N)Cc1ccccc1)C(=O)O [Bestatin hydrochloride] | 1.21
CNC(=C[N+](=O)[O-])NCCSCc1ccc(CN(C)C)o1 [Ranitidine hydrochloride] | 0.767 ± 0.062
CNC(=C[N+](=O)[O-])NCCSCc1ccc(CN(C)C)o1 | 0.523
C=CCc1ccc(O)c(-c2ccc(O)c(CC=C)c2)c1 | 1.17
O=C(O)CN(CCOCCOCCN(CC(=O)O)CC(=O)O)CC(=O)O | 1
O=c1c(-c2ccc(O)cc2)coc2cc(O)cc(O)c12 | 1.19
O=c1c(-c2ccc(O)cc2)coc2cc(O)cc(O)c12 [Genistein] | 1.15
O=C1C=C2CC3(O)COc4cc(O)ccc4C3=C2C=C1O (stereo not given) | 0.879
N[C@H](Cc1ccccc1)C(=O)O | 1.24
O=C1C=CC(=C(c2ccc(O)cc2)c2ccc(O)cc2)C=C1 | 1.14
CCCc1nc(C)c2c(O)nc(-c3cc(S(=O)(=O)N4CCN(CC)CC4)ccc3OCC)nn12 | 0.659
CC(=O)Nc1ccc(S(=O)(=O)Nc2ccc([N+](=O)[O-])cc2)cc1 | 0.916

Compound | normalized bacterial growth
Cc1ccc(C(=O)Nc2ccc(S(=O)(=O)O)c3cc(S(=O)(=O)O)cc(S(=O)(=O)O)c23)cc1NC(=O)c1cccc(NC(=O)Nc2cccc(C(=O)Nc3cc(C(=O)Nc4ccc(S(=O)(=O)O)c5cc(S(=O)(=O)O)cc(S(=O)(=O)O)c45)ccc3C)c2)c1 [Suramin sodium salt] | 0.962
CCc1cc(C(N)=S)ccn1 | 0.555
CC(=O)Nc1c(I)c(NC(C)=O)c(I)c(C(=O)O)c1I | 0.979
Cn1cc(C2=C(c3ccc(Cl)cc3Cl)C(=O)NC2=O)c2ccccc21 | 0.967
CN1CCN(C(c2ccccc2)c2ccc(Cl)cc2)CC1 (stereo not given) | 0.882
Cc1ccc(C(C)C)cc2c(C)ccc1-2 | 0.722
Nc1ncnc2c1ncn2[C@@H]1O[C@H](COP(=O)(O)CP(=O)(O)OP(=O)(O)O)[C@H](O)C1O (stereo partly drawn) ["alpha,beta-Methylene adenosine 5'-triphosphate dilithium"] | 1.38
O=C(N/N=C/c1ccc([N+](=O)[O-])o1)c1ccc(O)cc1 | 1.18
O=C1C=CC(=O)c2c1ccc1c2ccc2ccccc21 ["Chrysene-1,4-quinone"] | 0.854
NC(=O)c1ncn([C@@H]2O[C@H](CO)[C@@H](O)[C@H]2O)c1O [Mizoribine] | 1.22
CC(C)(O/N=C(\C(=O)N[C@@H]1C(=O)N2C(C(=O)[O-])=C(C[n+]3ccccc3)CS[C@H]12)c1csc(N)n1)C(=O)O | 0.859
CC(C)(O/N=C(\C(=O)N[C@@H]1C(=O)N2C(C(=O)[O-])=C(C[n+]3ccccc3)CS[C@H]12)c1csc(N)n1)C(=O)O [Ceftazidime pentahydrate] | 0.759
O=c1onc2n1-c1cc(Br)ccc1OC2 | 0.976
OC[C@H]1O[C@@H](OCCc2ccc(O)cc2)[C@H](O)[C@@H](O)[C@@H]1O | 1.26
COc1ccc(C2CC(=O)c3ccc(OC)cc3O2)cc1 (stereo not given) | 0.629
CNCCC=C1c2ccccc2CCc2ccccc21 | 0.813
CNCCC=C1c2ccccc2CCc2ccccc21 [Nortriptyline hydrochloride] | 0.777
C[C@H]1[C@H](NC(=O)/C(=N\OC(C)(C)C(=O)O)c2csc(N)n2)C(=O)N1S(=O)(=O)O [Aztreonam] | 0.0646
CC(=O)O[C@H]1CC[C@]2(C)[C@H]3CC[C@@]4(C)[C@H](c5ccoc5)OC(=O)[C@H]5O[C@]54[C@]3(C)[C@H](OC(C)=O)C[C@H]2C1(C)C [3beta-ACETOXYDEOXODIHYDROGEDUNIN] | 1.19
Cc1ccc2c(c1)CC[C@H]1CC(=O)CC[C@]21C | 1.22
NCC(O)c1ccc(O)c(O)c1 (stereo not drawn) [()-Norepinephrine (+)bitartrate] | 1.05
O=c1ccc2c(OCCCCc3ccccc3)c3ccoc3cc2o1 [Psora-4] | 1.1
NC(=O)c1cc[n+](CC2=C(C(=O)O)N3C(=O)[C@@H](NC(=O)C(c4ccccc4)S(=O)(=O)[O-])[C@H]3SC2)cc1 (stereo not given in full) [Cefsulodin sodium salt hydrate] | 0.91
CCn1cc(C(=O)O)c(=O)c2cc(F)c(N3CCNC(C)C3)c(F)c21 (stereo not given) [Lomefloxacin hydrochloride] | 1.09
COc1cc(C)nc(-n2nc(C)cc2OC)n1 [Epirizole] | 1.03
CS(=O)(=O)Nc1ccc([N+](=O)[O-])cc1Oc1ccccc1 [Nimesulide] | 1.02

An excerpt of the results above, as a working copy:
Compound | normalized bacterial growth
CC(=O)O[C@H]1CC[C@]2(C)[C@H]3CC[C@@]4(C)[C@H](c5ccoc5)OC(=O)[C@H]5O[C@]54[C@]3(C)[C@H](OC(C)=O)C[C@H]2C1(C)C [3beta-ACETOXYDEOXODIHYDROGEDUNIN] | 1.19
Cc1ccc2c(c1)CC[C@H]1CC(=O)CC[C@]21C | 1.22
NCC(O)c1ccc(O)c(O)c1 (stereo not drawn) [()-Norepinephrine (+)bitartrate] | 1.05
O=c1ccc2c(OCCCCc3ccccc3)c3ccoc3cc2o1 [Psora-4] | 1.1
NC(=O)c1cc[n+](CC2=C(C(=O)O)N3C(=O)[C@@H](NC(=O)C(c4ccccc4)S(=O)(=O)[O-])[C@H]3SC2)cc1 (stereo not given in full) [Cefsulodin sodium salt hydrate] | 0.91
